# Numbering of substitutions follows the chain as printed. Results are given in words; binding and its absence hold for the method and conditions named. Some results given as binding are weak or reduced against the parent protein; the word gives no strength.
# Sequences of proteins named here, by UniProt entry; tags and fusion partners are left off. A change or cut given only in a name is not applied to a line headed by its entry.
# UniProt P26718: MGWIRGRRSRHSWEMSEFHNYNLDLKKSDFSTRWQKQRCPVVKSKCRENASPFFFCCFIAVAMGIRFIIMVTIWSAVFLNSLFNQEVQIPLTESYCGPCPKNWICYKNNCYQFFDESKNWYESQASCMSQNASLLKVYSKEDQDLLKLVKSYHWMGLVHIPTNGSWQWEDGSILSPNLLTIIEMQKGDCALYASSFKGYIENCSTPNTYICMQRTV
# B1: anti-NKG2D antibody clone 013 (antibody, V domains shown)
# VH: EQSGGGAGGGLVKPGGSLELCCKASGFDFSIYWMSWVRQSPGKGLEWIGRIYGGSSDYTAYASWVNGRFTLSRDIDQSTGCLQLNSLTAADTAMYYCVRLNPSFSRSFDYWGQGTLVTVSS
# VL: DIQMTQSPSSVSASVGDRVTITCRASQGIFSWLVWYQQKPGKAPELLMYGASTLQSGVPSRFSGSGSGTDFTLTISSLQPEDFATYYCQQGYSTPYTFGQGTKVEIK
# B2: anti-NKG2D antibody clone 018 (antibody, V domains shown)
# VH: QQLEQSGGGLVTPGGSLKVCCKASGFDFTTYWMTWVRQAPEKGLEWIGCIHGGDSGATYYANWVNGRFTLSRDIDQSTGCLQLNSLTAADTAMYYCARPGYPSWSKTFDLWGQGTMVTVSS
# VL: DIQMTQSPSSLSASVGDRVTITCQASQDISNALNWYQQKPGKAPKLLIYAASTLQSGVPSRFSGSGSGTDFTLTISSLQPEDFATYYCQHSNSFPLTFGGGTKVEIK
# B3: anti-NKG2D antibody clone 230 (antibody, V domains shown)
# VH: QQLEQSGGGLVKPGGSLELCCIASGFDFSTYWMTWVRQAPGKGLEWIGCIHGGGSGTTSYASWVNGRFTLSRDIDQSTGCLQLTSLTAADTAMYYCARPGYRSWSKTFDLWGQGTMVTVSS
# VL: B2 VL with S26N, T53S, T85A, H90Q, S91A, N92A
# B4: anti-NKG2D antibody clone 320 (antibody, V domains shown)
# VH: EVQLLESGGGLVQPGGSLRLSCATSGFTFSDYAMSWVRQAPGKGLEWVSYNSFSVGSTDYADSVKGRFTISRDNSKNTLYLQMNSLRAEDTAVYYCSKHSGNYYTGPFHYWGQGTLVTVSS
# VL: DIQLTQSPSFLSASVGDRVTITCRASQGISSYLAWYQQKPGKAPKLLIYAASSLESGVPSRFSGSGSGTDFTLTISSLQPEDFATYYCQQSYSTPITFGQGTRLEIK
# B5: anti-NKG2D antibody clone 001 (antibody, V domains shown)
# VH: B3 VH with K12T, E18K, A23G, S29N, G54S, T57S, S59Y, L83V, T84N
# VL: B2 VL with Q24R, N31E, A32S, T53S, F71Y, H90Q, S91A
# B6: anti-NKG2D antibody clone 296 (antibody, V domains shown)
# VH: EVQLLESGGGLVQPGGSLRLSCAASGFTFSSYAMSWVRQAPGKGLEWVSAIGIGGGGTYYADSVKGRFTISRDNSKNTLYLQMNSLRAEDTAVYHCAKGASFDFINFFPYWGQGTLVTVSS
# VL: B2 VL with Q24R, D28G, A32D, N34A, T53S, H90Q, S91T, N92Y, F94T
# B7: anti-NKG2D antibody clone 395 (antibody, V domains shown)
# VH: QEQLEQSGGGLVTPGGSLKLCCTASGFDFNTFWMTWVRQAPGKGLEWIGCIHGGSGSRDYASWVNGRFTLSRDIDQSTACLQVNSLTAADTAMYYCARPGYRSWSKTFDLWGQGTMVTVSS
# VL: B2 VL with Q24R, N31G, K45N, T53S, F71Y, H90Q, S91A
# Biological target: recombinant biotinylated human NKG2D (Example 5) (human) (UniProt P26718)
# Assay: competition ELISA: biotinylated human NKG2D pre-incubated with the antibody, then added to plate-coated MIC-B (ECD FL MIC-B Fc avi), bound NKG2D detected with streptavidin-HRP; ligand MIC-B is not blocked
row,Binder,binding
1,B1,binds

# Biological target: recombinant biotinylated human NKG2D (Example 5) (human) (UniProt P26718)
# Assay: competition ELISA: biotinylated human NKG2D pre-incubated with the antibody, then added to plate-coated MIC-B (ECD FL MIC-B Fc avi), bound NKG2D detected with streptavidin-HRP; blocked ligand: MIC-B
row,Binder,binding
1,B2,binds
2,B3,binds
3,B4,binds
4,B5,binds
5,B6,binds
6,B7,binds
